Measurements reported in PubChem BioAssay AID652243 (Drosophila RNAi Screening Center, 2013)
Screen: 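Fly regulators of androgen-dependent reporter output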 (primary screen). Cells: Drosophila S2R+ cells. Knock-down reagent: long dsRNA against Drosophila genes. Timing: 72 h (48 h, then 24 h hormone). Challenge: synthetic androgen R1881 at 10 nM for 24 h. Read-out: 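Firefly light from an androgen-responsive reporter and Renilla control light per well, raw and unnormalised, for each of two replicates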. Scale: firefly reporter light: higher = more light from androgen-responsive reporter; Renilla control light: higher = more constitutive control signal (cell number, transfection). Hit rule: 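Hit when the log firefly-to-Renilla ratio dropped or increased by a fixed fold versus the mean of GFP or LacZ controls across duplicate plates; lowering cut given as 1.5 and as 3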. Meaning of the calls: active = hit: reporter lowered or raised; inactive = no hit.
The deposit covers about 24,000 reagents; below is a random part of those with a known target gene and a result. Of all reagents, 246 (1%) were called active. 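Plates not normalised; calls are printed but the firefly/Renilla ratio behind them is not deposited; fold cut for lowering reported inconsistently.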 Raw values are not corrected between plates. Reagent sequences are not shown. Not stated in the record: the amount of reagent.

predicted target | amplicon | firefly reporter light, replicate 1 | firefly reporter light, replicate 2 | Renilla control light, replicate 1 | Renilla control light, replicate 2 | activity call
CG18404 | DRSC15323 | 3.12e5 | 3.57e5 | 2.82e6 | 3.39e6 | inactive
Kpc1 | DRSC16107 | 73050 | 97674 | 1.01e6 | 1.03e6 | inactive
CG1690 | DRSC06636 | 3.35e5 | 3.41e5 | 1.93e6 | 2.27e6 | inactive
ATPsynCF6L | DRSC08232 | 1.90e5 | 2.01e5 | 2.54e6 | 3.18e6 | inactive
ATPsynCF6L | DRSC27341 | 3.01e5 | 2.86e5 | 6.42e5 | 7.98e5 | inactive
CG31244 | DRSC21589 | 4.39e5 | 3.46e5 | 2.25e6 | 2.57e6 | inactive
Plap | DRSC00678 | 7.56e5 | 1.11e6 | 1.71e6 | 1.62e6 | inactive
CG31740 | DRSC01619 | 1.58e5 | 1.49e5 | 5.50e5 | 6.07e5 | inactive
ppk21 | DRSC14466 | 1.86e5 | 2.30e5 | 1.42e6 | 1.66e6 | inactive
Trmt6 | DRSC03272 | 1.85e5 | 2.10e5 | 1.92e6 | 2.50e6 | inactive
CG32369 | DRSC10042 | 99654 | 1.16e5 | 1.05e6 | 1.84e6 | inactive
CG32369 | DRSC10834 | 8.91e5 | 8.79e5 | 1.48e6 | 1.88e6 | inactive
CG32369 | DRSC23995 | 5.80e5 | 3.34e5 | 6.74e5 | 6.16e5 | inactive
CG14693 | DRSC14916 | 1.18e5 | 85281 | 1.65e6 | 2.46e6 | inactive
Vps35 | DRSC04519 | 9.68e5 | 2.00e5 | 1.41e6 | 6.00e5 | inactive
Vps35 | DRSC28790 | 3.76e5 | 3.60e5 | 1.52e6 | 1.09e6 | inactive
CG2267 | DRSC15435 | 1.06e5 | 73581 | 2.05e6 | 2.27e6 | inactive
cact | DRSC03501 | 1.01e6 | 1.16e6 | 1.13e6 | 1.71e6 | inactive
cact | DRSC28422 | 4.68e5 | 6.93e5 | 8.99e5 | 1.31e6 | inactive
CG4199 | DRSC18519 | 1.22e5 | 93802 | 6.56e5 | 4.04e5 | inactive
CG4199 | DRSC21314 | 8.94e5 | 7.90e5 | 2.56e6 | 1.74e6 | inactive
CG4199 | DRSC27951 | 1.08e6 | 7.48e5 | 3.39e6 | 1.30e6 | inactive
CG33721 | DRSC37807 | 8.41e5 | 5.66e5 | 2.55e6 | 1.56e6 | inactive
CG14411 | DRSC19597 | 4.72e5 | 2.46e5 | 2.75e6 | 1.95e6 | inactive
CG14411 | DRSC29396 | 4.09e5 | 4.92e5 | 1.10e6 | 1.10e6 | inactive

2 of these entries in another layout.
ATPsynCF6L [DRSC08232] → firefly reporter light, replicate 1: 1.90e5; firefly reporter light, replicate 2: 2.01e5; Renilla control light, replicate 1: 2.54e6; Renilla control light, replicate 2: 3.18e6; activity call: inactive
ATPsynCF6L [DRSC27341] → firefly reporter light, replicate 1: 3.01e5; firefly reporter light, replicate 2: 2.86e5; Renilla control light, replicate 1: 6.42e5; Renilla control light, replicate 2: 7.98e5; activity call: inactive
